AC50 and cell number change data for 61 compounds are collected here from PubChem BioAssay AID2685 (National Center for Advancing Translational Sciences (NCATS), 2010).

Some of the results follow. These are further read-outs of the screen, such as a control signal, another cell line or another target. No call is given for them. Most of these compounds were active or inconclusive in the main read-out, so they are no random draw. Potencies come from curve fits of mixed quality, noted in brackets.

This experiment is described as follows: qHTS Assay for Lipid Storage Modulators in Drosophila S3 Cells.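 On cell number change: cells counted by Cell Tracker Red CMTPX staining in the red channel.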 The following applies: BODIPY lipid droplet fluorescence, 18-24 h; for cell number change: measured here: cell count max response, cells fed with added oleic acid. Put shortly:
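Laser-scanning cytometry quantifies lipid droplet accumulation (500–530 nm total intensity; droplet/cell object ratio) in oleic acid-fed (400 uM added) Drosophila S3 cells treated with a concentration series. 20 uM Triacsin C defined 100% inhibition.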

Where [1] appears, read: measured here: cell number channel AC50, cells fed with added oleic acid.
The mark [2] stands for this setting: measured here: lipid fluorescence (Fed channel) AC50, cells fed with added oleic acid.

As a reminder, the AC50 is the concentration at which the activity in the assay is half-maximal. As to `O=C(O)c1cc(C(=O)C2CC2)c[nH]1`, the AC50 by setting is: under setting [1], 1.64 µM [falling, single point]; under setting [2], 2.59 µM [falling, partial curve, poor fit]. As for `Cc1ccc(S(=O)(=O)N(C)CCCC(=O)N2CCN(C=O)CC2)cc1`, the cell number change was determined as 4.3%. Besides, the AC50 under setting [2] was 29.1 µM [rising, single point]. Consider `CCC1CCCCN1CCCNC(=O)CCCNC(=O)Cn1cnc2sc3c(c2c1=O)CCCC3` (centres undefined), for which the cell number change came out at 28.6%. For the compound `N#CCCn1cc(C(=O)Nc2ccc(C(=O)O)cc2)c(-c2cccs2)n1`, the cell number change was -4.62%. In addition, the AC50 under setting [1] was 0.0092 µM [falling, full curve]. Also, the AC50 under setting [2] is 0.0058 µM [falling, full curve, poor fit].

In the case of `O=C(CSc1cc(Cl)ccc1Cl)NCCCn1ccnc1`, the cell number change is -1.9%. Moreover, under setting [2], the half-maximal activity concentration (AC50) was 6.51 µM [rising, single point]. Consider `O=C(N/N=C/c1ccccn1)c1cc(-c2ccccc2)nc2ccccc12`, for which the cell number change is -25.8%. Besides, the concentration at half-maximal activity (AC50) under setting [2] is 14.6 µM [falling, partial curve]. For the compound `Nc1nc(SCC(=O)NC2CCCCC2)[nH]c(=O)c1-c1ccccc1`, the cell number change turned out to be 35.9%. In addition, the half-maximal activity concentration (AC50) under setting [1] is 29.1 µM [rising, single point]. Also, the AC50 under setting [2] was 29.1 µM [rising, single point]. In the case of `COC(=O)c1ccc(C2C(C(=O)c3ccco3)=C(O)C(=O)N2c2cc(C)on2)cc1` (centres undefined), the cell number change is -6.37%. In addition, the AC50 under setting [2] was 29.1 µM [rising, single point]. Regarding `Cc1cccnc1N(C(=O)Nc1cccc(Cl)c1)C1=NCC(C)(C)S1`, the cell number change is -22.8%. The concentration at half-maximal activity (AC50) under setting [2] is 32.6 µM [falling, single point]. With `CC(C)(C)C(=O)NC1CC2CCCC(C1)N2C(=O)Nc1ccccc1Cl` (centres undefined), the cell number change was 11.8%. Turning to `Fc1ccc(Nc2ncnc3sccc23)cc1`, the cell number change was found to be 19.1%. Also, the half-maximal activity concentration (AC50) under setting [2] is 0.13 µM [falling, full curve, poor fit]. Turning to `Cc1ccc(-c2ccc(SCC(=O)Nc3cc(C)on3)nn2)cc1`, the cell number change stood at 12.3%. Under setting [2], the AC50 is 29.1 µM [rising, single point]. Consider `Cc1occc1-c1nnc(SCC(=O)NCCc2ccccc2)n1Cc1ccccc1`, for which the cell number change was determined as 2.3%. In addition, the AC50 under setting [2] was 0.00461 µM [rising, full curve, poor fit]. Turning to `CSc1nnc(-c2cc[n+](C)cc2)n1CCO`, the cell number change was -33.8%. Also, the AC50 under setting [1] is 0.058 µM [falling, full curve, poor fit]. For the same compound, under setting [2], the AC50 was 0.146 µM [falling, full curve]. Regarding `CC(O)c1ccc(OCCN(C)c2ccccn2)cc1` (centres undefined), the cell number change turned out to be 25.7%. Under setting [2], the AC50 is 9.2 µM [rising, partial curve, poor fit].

As for `CCOC(=O)NC(=O)COC(=O)CNC(=O)c1ccc(OCC)c(OCC)c1`, the cell number change was found to be 2.15%. Besides, the AC50 under setting [2] is 2.91 µM [rising, single point].

On to `COC(=O)C1CCCN1S(=O)(=O)c1ccc2ccccc2c1` (centres undefined), for which the cell number change was -13.2%. `O=C(NCc1nc2ccccc2[nH]1)C1=C[C@@H](C2CCCCC2)C[C@@H](OCCCCO)O1`: the cell number change is -4.92%. Moreover, the AC50 under setting [2] is 25.9 µM [rising, single point].

On to `O=C(C(=O)N1CCOCC1)c1cn(CCOc2ccccc2)c2ccccc12`, for which the cell number change was -44.9%. Besides, under setting [1], the concentration at half-maximal activity (AC50) is 29.1 µM [falling, single point]. Further, under setting [2], the AC50 is 29.1 µM [falling, single point]. Take `CCc1ccccc1N(CC(=O)N1CCN(c2ccc(F)cc2)CC1)S(C)(=O)=O`: the cell number change was -10.8%.

In the case of `O=C(NC1CC1)C1=C[C@@H](c2c[nH]c3ccccc23)C[C@@H](OCc2ccc(CO)cc2)O1`, the cell number change was -5.4%. In addition, under setting [2], the half-maximal activity concentration (AC50) was 29.1 µM [falling, single point]. On to `CCOc1ccc(NC(=O)CCNC(=O)Cn2ccc3ccccc3c2=O)cc1`, for which the cell number change was 16.7%. For the same compound, the AC50 under setting [2] is 2.59 µM [rising, full curve]. `Cc1cccc(-c2nnc(SCc3cc(=O)[nH]c4ccccc34)n2C)c1`: the cell number change worked out at 34.4%. The AC50 under setting [1] was 0.92 µM [rising, full curve, poor fit]. `CCOC(=O)c1c(C)[nH]c(C(=O)CN2C(=O)NC(C)(CC(C)C)C2=O)c1C` (centres undefined): the cell number change is 13.2%. For the same compound, the AC50 under setting [1] was 1.03 µM [rising, partial curve, poor fit]. Take `COc1ccc(CNC(=O)CSc2nnnn2C)cc1OC`: the cell number change was 14.2%. Also, under setting [2], the AC50 was 3.66 µM [falling, single point]. As to `O=[N+]([O-])c1cc2c(cc1/C=N/NS(=O)(=O)c1ccc(Br)cc1)OCO2`, the cell number change is 47.5%. Also, the AC50 under setting [1] was 23.1 µM [rising, single point]. In addition, under setting [2], the AC50 is 25.9 µM [rising, single point].

As to `CCOC(=O)c1oc2ccccc2c1NC(=O)Cc1cccs1`, the cell number change is -38.2%. In addition, the AC50 under setting [1] is 13 µM [falling, partial curve, poor fit]. The AC50 under setting [2] is 18.4 µM [falling, single point].

Turning to `O=C1C(Cl)=C(NCCN2CCCCC2)C(=O)c2ccccc21`, the cell number change is -3.74%. Besides, under setting [1], the AC50 is 0.461 µM [rising, full curve, poor fit]. In addition, the AC50 under setting [2] is 0.461 µM [rising, single point].

Consider `CCN(CC)c1ccc(NC(=O)CCS(=O)(=O)c2ccc(Br)cc2)c(C)c1`, for which the cell number change worked out at 8.03%. Turning to `CC(=O)N1CCN(S(=O)(=O)c2cccc(C(=O)Nc3nc4ccccc4[nH]3)c2)CC1`, the cell number change was determined as 29%. In addition, under setting [2], the AC50 is 14.6 µM [rising, single point]. For the compound `CCOC(=O)c1sc(NC(=O)CS(=O)(=O)c2ccc(C)cc2)nc1C`, the cell number change is -14.3%. Also, under setting [2], the AC50 is 4.11 µM [rising, full curve]. Regarding `Cc1ccccc1OCC(=O)NNC(=O)CSc1nc(N)cc(N)n1`, the cell number change was determined as 12%. In addition, the AC50 under setting [2] is 10.3 µM [rising, partial curve]. For `COc1ccccc1NC(=O)Nc1nc(CC(=O)N2CCN(c3ccccc3)CC2)cs1`, under setting [1], the AC50 is 0.231 µM [rising, full curve]. For the compound `N#C/C(=C\N1CCN(Cc2ccc3c(c2)OCO3)CC1)c1nc2ccccc2s1`, the cell number change was -38.4%. The AC50 under setting [1] is 1.64 µM [falling, partial curve]. Besides, the AC50 under setting [2] is 20.6 µM [falling, partial curve].

With `O=C1/C(=C/c2cccnc2)SC(=S)N1C1CCS(=O)(=O)C1` (centres undefined), the cell number change was -13.2%. Moreover, the AC50 under setting [2] is 6.51 µM [falling, partial curve]. For `CC(=O)c1ccccc1-c1csc2ncnc(Sc3nnnn3C)c12`, the cell number change is 2.15%. The AC50 under setting [2] is 0.00411 µM [rising, full curve, poor fit].

Regarding `Cc1cc(C)c(C(=O)Cn2cnc3cc([N+](=O)[O-])ccc3c2=O)cc1C`, the cell number change is -15.5%. Take `CCNc1nc(NC(C)C)nc(NC(C)(C)C)n1`: the cell number change is -19.2%. The AC50 under setting [2] was 0.00461 µM [falling, full curve, poor fit]. As to `CCOC(=O)/C(C#N)=C(\N)C(C)C(=O)Nc1ccccn1` (centres undefined), the cell number change is 0.0258%. Also, under setting [2], the AC50 is 0.13 µM [rising, full curve]. Consider `CCOc1ccc2c(c1)c(N=O)c(O)n2C`, for which the cell number change stood at 3.04%. Moreover, under setting [2], the AC50 was 29.1 µM [rising, single point]. On to `CCN(CC)C(=O)CSC1=C(C#N)C(c2cccs2)C=C(C)N1` (centres undefined), for which the cell number change was -6.83%. Also, the half-maximal activity concentration (AC50) under setting [2] was 2.06 µM [rising, full curve, poor fit]. On to `Cc1ccc(C(=O)NC2CCCC2)cc1S(=O)(=O)N1CCCCC1`, for which the cell number change is -16.8%. The AC50 under setting [2] is 1.03 µM [falling, single point]. As for `COc1ccccc1Nc1ncnc2nc[nH]c12`, the cell number change amounted to 66.3%. In addition, the AC50 under setting [1] is 29.1 µM [rising, single point]. Also, the AC50 under setting [2] is 29.1 µM [rising, single point]. On to `CC(=O)c1ccc(S(=O)(=O)N2CCN(c3ccccc3F)CC2)cc1`, for which the cell number change stood at 9.67%. Moreover, the AC50 under setting [2] was 0.00461 µM [falling, full curve, poor fit]. For `COc1ccc(CN2CCCC(C(=O)Nc3cccc(-n4cnnn4)c3)C2)c(C)c1C` (centres undefined), the cell number change is 23.5%. In addition, the AC50 under setting [1] was 0.164 µM [rising, full curve, poor fit]. Consider `COC(=O)CNC(c1ccccc1)c1cc(Br)ccc1NC(=O)CCN1CCOCC1` (centres undefined), for which the cell number change was -7.21%. The AC50 under setting [2] is 29.1 µM [falling, single point]. In the case of `CC[C@]12CCCN3CCc4c(n(c5ccccc45)C(=O)C1)[C@@H]32`, the cell number change worked out at 14.9%. Moreover, under setting [2], the AC50 is 0.13 µM [falling, full curve, poor fit].

For `CCC(C)[C@H](NC(=O)NCc1cccc(OC)c1)C(=O)OC` (some centres undefined), the cell number change was -15.5%. Turning to `CCCN=C1N/C(=C\c2ccco2)C(=O)N1c1ccccc1`, under setting [2], the concentration at half-maximal activity (AC50) was 29.1 µM [rising, single point]. Turning to `CN(CC(=O)Nc1nc2ccc(F)cc2s1)S(=O)(=O)c1ccc(Cl)cc1`, the cell number change came out at 17.5%. Moreover, the AC50 under setting [1] was 2.06 µM [rising, partial curve].

Regarding `Cc1ccc(Nc2nc(COC(=O)C3CC3)cs2)cc1`, the cell number change was -42.1%. In addition, the half-maximal activity concentration (AC50) under setting [1] is 13 µM [falling, partial curve]. Moreover, the AC50 under setting [2] is 18.4 µM [falling, partial curve]. Consider `CCOC(=O)c1c(S(=O)(=O)NCC(=O)N2CCN(c3ccccc3OC)CC2)c(C)n(C)c1C`, for which the cell number change was -7.93%. Further, the AC50 under setting [2] was 11.6 µM [rising, partial curve].

For the compound `CC(C)CC(=O)NC(=S)N1CCN(c2ccc([N+](=O)[O-])cc2Cl)CC1`, the cell number change was -7.7%. Further, the AC50 under setting [2] was 14.6 µM [rising, partial curve]. Consider `Cc1cccc(NC(=O)CC2(CC(=O)O)CCCC2)c1`, for which the cell number change turned out to be 2.84%. Take `S=c1nc2ccccc2c2nc(-c3ccccc3)[nH]n12`: the cell number change was -0.783%. The AC50 under setting [2] was 3.26 µM [rising, full curve].

For the compound `Cc1cc(S(=O)(=O)NCC(C)C)ccc1OCC(=O)NC1CC1`, the cell number change worked out at 25.8%. Consider `COc1ccc(NS(=O)(=O)c2c(C)cc(C)cc2C)cn1`, for which the cell number change came out at 15.8%. Same read-out and setting: the value for `CC1CCCC(C)N1C(=O)CSc1ccc(-c2ccc3c(c2)OCCO3)nn1` (centres undefined) was 9.13%. With `CN(CC(=O)Nc1ccc(Cl)cc1)C1=NS(=O)(=O)c2ccccc21`, the cell number change was found to be 38.1%. The AC50 under setting [1] is 29.1 µM [rising, single point]. On to `CCN(CC)CCNC(=O)c1ccc2c(c1NCCO)C(=O)c1ccccc1C2=O`, for which the cell number change is -13.1%. Under setting [2], the concentration at half-maximal activity (AC50) is 16.4 µM [falling, single point].

In the case of `COc1cc(N)ccc1NC(=O)c1cccs1`, the cell number change is -22.2%. For the same compound, the AC50 under setting [2] is 18.4 µM [rising, single point].
